Data reported in the supplement of paper PMC10849652.
This is one part of the list.

The chains behind the UniProt entries cited, without tags or fusion partners. Where a name states a change or a piece, a line headed by the entry shows the natural chain unless it says otherwise.
UniProt Q13185: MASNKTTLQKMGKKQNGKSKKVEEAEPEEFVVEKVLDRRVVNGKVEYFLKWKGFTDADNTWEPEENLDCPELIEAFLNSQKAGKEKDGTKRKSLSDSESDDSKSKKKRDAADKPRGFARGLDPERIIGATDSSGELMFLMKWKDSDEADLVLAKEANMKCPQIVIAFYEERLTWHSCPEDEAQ
UniProt Q9ULG6: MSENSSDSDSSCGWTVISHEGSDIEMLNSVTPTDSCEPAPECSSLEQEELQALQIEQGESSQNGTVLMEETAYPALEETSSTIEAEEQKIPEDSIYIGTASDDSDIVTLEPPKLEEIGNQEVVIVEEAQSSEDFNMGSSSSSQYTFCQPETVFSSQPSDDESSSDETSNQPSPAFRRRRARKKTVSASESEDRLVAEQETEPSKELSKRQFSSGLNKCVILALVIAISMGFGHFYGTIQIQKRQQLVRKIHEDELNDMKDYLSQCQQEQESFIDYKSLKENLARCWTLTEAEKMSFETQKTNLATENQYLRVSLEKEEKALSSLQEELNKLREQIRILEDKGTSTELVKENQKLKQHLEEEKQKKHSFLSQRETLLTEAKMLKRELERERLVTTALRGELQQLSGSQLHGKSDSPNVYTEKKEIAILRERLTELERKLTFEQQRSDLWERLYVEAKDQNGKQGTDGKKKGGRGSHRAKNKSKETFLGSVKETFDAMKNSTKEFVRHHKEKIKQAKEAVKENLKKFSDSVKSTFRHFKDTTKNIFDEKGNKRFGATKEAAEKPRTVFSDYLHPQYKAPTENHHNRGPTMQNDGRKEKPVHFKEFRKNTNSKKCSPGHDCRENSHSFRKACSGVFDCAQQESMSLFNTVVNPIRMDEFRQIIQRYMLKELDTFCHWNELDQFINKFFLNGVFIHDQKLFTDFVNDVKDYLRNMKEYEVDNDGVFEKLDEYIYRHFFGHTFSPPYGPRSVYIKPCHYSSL
UniProt P14635, whole entry, looked up: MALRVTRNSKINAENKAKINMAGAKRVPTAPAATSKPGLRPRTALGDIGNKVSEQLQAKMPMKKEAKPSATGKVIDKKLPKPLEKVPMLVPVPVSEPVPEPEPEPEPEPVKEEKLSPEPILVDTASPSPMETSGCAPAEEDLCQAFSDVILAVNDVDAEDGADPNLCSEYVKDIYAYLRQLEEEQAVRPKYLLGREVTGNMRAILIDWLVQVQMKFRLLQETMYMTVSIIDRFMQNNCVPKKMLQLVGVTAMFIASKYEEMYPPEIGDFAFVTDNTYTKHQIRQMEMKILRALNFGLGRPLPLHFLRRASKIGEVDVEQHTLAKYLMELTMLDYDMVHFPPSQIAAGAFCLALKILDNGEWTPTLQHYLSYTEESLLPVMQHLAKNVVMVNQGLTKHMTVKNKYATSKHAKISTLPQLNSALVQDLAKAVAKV
UniProt Q7Z6B0: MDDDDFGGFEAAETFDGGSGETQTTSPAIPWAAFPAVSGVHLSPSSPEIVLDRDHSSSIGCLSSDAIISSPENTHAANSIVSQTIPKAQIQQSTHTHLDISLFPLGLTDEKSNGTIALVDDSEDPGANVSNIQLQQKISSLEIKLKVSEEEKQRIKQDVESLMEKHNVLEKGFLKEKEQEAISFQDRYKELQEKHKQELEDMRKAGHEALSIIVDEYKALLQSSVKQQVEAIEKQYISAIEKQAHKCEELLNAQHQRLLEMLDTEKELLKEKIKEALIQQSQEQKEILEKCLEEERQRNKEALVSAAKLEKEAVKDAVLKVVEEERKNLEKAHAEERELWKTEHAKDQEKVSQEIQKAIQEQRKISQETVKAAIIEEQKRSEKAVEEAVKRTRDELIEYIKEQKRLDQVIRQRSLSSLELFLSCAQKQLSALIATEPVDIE
UniProt Q4VC31: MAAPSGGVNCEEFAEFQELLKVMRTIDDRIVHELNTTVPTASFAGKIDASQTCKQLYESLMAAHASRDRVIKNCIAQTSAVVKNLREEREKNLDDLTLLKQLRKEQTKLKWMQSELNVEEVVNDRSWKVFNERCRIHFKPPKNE
UniProt Q9UJX2, whole entry, looked up: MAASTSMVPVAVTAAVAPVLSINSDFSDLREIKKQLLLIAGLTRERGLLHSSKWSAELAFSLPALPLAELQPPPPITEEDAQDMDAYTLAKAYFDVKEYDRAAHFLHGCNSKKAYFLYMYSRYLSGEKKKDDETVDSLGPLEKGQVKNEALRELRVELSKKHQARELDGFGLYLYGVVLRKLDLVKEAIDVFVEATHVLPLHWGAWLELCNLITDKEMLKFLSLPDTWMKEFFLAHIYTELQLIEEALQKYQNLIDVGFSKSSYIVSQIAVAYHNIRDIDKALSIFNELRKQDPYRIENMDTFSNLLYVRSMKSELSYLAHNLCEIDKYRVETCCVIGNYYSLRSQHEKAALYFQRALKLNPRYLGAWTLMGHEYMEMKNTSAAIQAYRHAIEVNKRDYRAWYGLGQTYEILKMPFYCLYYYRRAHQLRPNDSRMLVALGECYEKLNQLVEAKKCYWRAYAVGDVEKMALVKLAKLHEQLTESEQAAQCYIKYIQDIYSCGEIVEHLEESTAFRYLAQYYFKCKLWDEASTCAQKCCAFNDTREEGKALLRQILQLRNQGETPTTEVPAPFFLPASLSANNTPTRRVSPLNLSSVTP
UniProt O14618: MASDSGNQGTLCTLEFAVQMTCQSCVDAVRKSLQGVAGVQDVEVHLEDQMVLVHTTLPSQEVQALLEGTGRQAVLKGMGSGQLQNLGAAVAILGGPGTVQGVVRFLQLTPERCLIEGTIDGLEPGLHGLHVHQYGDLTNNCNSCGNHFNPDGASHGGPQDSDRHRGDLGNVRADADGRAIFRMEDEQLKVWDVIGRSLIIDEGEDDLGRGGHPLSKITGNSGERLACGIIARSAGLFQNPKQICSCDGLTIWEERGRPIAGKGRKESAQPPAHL
UniProt Q16204: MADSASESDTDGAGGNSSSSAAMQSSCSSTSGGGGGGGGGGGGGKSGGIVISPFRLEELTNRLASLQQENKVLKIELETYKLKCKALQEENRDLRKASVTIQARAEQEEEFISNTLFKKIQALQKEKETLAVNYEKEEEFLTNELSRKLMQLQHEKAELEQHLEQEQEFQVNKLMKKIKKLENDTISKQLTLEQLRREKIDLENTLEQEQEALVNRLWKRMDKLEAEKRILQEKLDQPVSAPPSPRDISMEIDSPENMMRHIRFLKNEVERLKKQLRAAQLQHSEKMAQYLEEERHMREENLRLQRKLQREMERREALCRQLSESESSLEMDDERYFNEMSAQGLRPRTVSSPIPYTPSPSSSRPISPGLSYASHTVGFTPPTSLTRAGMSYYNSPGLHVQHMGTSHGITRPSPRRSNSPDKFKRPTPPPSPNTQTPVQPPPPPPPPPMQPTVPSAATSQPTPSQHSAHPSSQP
UniProt P60953, whole entry, looked up: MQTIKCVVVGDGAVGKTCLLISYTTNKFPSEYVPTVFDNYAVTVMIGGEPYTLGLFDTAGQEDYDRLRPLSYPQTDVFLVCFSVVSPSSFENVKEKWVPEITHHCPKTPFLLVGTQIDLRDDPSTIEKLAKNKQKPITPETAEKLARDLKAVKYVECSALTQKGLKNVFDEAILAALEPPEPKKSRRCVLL
UniProt Q8IWY9: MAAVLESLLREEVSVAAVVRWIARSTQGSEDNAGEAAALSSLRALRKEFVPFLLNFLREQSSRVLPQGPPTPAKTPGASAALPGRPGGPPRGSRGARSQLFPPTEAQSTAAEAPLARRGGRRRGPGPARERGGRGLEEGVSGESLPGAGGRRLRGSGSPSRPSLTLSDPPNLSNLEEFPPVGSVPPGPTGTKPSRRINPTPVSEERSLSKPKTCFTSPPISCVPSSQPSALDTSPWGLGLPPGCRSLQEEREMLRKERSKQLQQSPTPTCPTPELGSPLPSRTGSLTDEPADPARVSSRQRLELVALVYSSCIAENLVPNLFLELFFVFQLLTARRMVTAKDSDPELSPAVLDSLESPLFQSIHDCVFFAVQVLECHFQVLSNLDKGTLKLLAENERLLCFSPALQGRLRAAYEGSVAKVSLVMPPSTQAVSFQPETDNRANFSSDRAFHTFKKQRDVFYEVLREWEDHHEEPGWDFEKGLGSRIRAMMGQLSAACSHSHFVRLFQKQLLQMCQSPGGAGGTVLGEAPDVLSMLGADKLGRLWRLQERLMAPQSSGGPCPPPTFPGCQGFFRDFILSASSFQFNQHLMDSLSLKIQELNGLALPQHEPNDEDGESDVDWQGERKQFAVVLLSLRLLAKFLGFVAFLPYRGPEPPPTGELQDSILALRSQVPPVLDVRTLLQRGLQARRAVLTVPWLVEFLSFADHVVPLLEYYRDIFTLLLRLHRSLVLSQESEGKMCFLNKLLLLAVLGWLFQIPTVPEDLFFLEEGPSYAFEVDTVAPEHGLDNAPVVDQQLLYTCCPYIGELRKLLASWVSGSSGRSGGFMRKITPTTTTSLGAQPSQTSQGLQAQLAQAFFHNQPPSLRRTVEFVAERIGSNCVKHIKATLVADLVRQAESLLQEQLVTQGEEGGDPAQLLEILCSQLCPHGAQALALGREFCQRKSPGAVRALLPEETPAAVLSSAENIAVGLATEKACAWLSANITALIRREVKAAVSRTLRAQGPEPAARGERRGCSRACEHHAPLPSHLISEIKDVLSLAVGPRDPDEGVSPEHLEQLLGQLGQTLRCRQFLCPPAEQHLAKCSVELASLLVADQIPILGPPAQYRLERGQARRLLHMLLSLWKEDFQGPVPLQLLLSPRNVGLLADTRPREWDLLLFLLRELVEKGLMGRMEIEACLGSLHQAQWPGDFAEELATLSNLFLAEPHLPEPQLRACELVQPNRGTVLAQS
UniProt P20248, whole entry, looked up: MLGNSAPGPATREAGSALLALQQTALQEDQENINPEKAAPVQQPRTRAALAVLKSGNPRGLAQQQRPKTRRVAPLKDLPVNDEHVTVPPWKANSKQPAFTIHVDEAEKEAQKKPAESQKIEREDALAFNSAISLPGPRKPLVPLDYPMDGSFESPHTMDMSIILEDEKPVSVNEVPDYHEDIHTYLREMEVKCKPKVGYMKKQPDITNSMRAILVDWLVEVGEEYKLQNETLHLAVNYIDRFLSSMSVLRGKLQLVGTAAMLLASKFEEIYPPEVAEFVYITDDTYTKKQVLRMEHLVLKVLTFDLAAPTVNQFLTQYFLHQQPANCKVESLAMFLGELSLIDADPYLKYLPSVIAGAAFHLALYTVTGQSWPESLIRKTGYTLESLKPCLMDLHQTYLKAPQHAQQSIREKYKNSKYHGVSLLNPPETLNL
UniProt O75909: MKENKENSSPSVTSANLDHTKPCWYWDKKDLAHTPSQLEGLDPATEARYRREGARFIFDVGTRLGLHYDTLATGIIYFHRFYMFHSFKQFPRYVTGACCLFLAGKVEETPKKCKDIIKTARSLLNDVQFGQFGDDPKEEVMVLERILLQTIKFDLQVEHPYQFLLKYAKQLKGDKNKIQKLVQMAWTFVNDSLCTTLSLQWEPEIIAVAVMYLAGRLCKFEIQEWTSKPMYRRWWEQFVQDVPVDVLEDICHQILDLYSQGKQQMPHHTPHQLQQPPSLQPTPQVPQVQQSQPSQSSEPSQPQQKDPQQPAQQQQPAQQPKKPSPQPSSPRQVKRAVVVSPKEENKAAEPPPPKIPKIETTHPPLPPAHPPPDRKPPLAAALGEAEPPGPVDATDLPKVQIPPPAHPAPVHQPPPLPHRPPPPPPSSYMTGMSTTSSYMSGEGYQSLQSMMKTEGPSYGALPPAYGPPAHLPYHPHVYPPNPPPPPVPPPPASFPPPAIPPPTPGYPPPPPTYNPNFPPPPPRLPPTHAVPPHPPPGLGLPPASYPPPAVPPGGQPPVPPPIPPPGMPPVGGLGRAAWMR
UniProt P50991: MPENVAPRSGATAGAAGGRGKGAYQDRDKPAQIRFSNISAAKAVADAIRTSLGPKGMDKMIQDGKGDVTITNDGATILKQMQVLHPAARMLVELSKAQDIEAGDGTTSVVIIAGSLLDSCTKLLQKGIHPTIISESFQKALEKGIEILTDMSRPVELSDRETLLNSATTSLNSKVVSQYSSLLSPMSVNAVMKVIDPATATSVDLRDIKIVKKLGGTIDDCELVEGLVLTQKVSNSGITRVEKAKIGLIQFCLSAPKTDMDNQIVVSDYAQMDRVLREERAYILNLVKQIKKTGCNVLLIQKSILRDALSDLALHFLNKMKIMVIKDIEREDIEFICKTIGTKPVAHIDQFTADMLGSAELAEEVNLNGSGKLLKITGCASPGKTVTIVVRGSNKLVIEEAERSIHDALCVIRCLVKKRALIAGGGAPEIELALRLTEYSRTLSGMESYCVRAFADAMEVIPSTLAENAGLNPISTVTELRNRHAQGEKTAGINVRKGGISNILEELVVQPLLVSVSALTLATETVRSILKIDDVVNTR
UniProt Q13951, whole entry, looked up: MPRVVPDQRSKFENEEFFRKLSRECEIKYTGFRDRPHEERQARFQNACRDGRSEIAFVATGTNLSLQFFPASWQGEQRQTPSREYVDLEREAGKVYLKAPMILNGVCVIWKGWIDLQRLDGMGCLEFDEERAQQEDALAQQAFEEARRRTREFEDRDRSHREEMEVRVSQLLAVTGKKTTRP

What was measured:
Experiment in all cases: log2 fold change, soluble protein after heating vs DMSO (PISA); higher = thermal stabilisation; K562 cells, 10 uM, 30 min; active = over 0.2 and 3.5 SD of the protein, either way, in both replicates (recomputed)
bafetinib = compound: Cc1ccc(NC(=O)c2ccc(CN3CC[C@H](N(C)C)C3)c(C(F)(F)F)c2)cc1Nc1nccc(-c2cncnc2)n1 [bafetinib]
In short: (§1)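 K562 cells at 2×10^6 cells/mL were given 10 μM compound for 30 min. Aliquots then went through 3 min of heating across 48°C-58°C, were pooled, and were extracted in PBS with 0.5% NP-40 at 4°C, and the supernatant after 21,000xg for 90 min was quantified by TMTpro 16plex LC-MS/MS with channel sums equalised. Thermal stability relative to control samples, from duplicates, is given as log2 fold change.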

[1] = compound: Cc1cccc(CC(=O)N2CCc3c2ccc(-c2cn(C)c4ncnc(N)c24)c3F)n1
In short: as §1

nilotinib = compound: Cc1cn(-c2cc(NC(=O)c3ccc(C)c(Nc4nccc(-c5cccnc5)n4)c3)cc(C(F)(F)F)c2)cn1 [nilotinib]
In short: as §1

[2] = compound: Cc1nc(Nc2n[nH]c3c2CN(C(=O)N[C@H](CN(C)C)c2ccccc2)C3(C)C)c2sccc2n1
In short: as §1

dasatinib = compound: Cc1nc(Nc2ncc(C(=O)Nc3c(C)cccc3Cl)s2)cc(N2CCN(CCO)CC2)n1 [dasatinib]
In short: as §1

[3] = compound: Cc1ncc(-c2ccnc(Nc3ccc(S(C)(=O)=O)cc3)n2)n1C(C)C
In short: as §1

[4] = compound: Cn1cc(-c2ccc3c(c2)CCN3C(=O)Cc2cccc(C(F)(F)F)c2)c2c(N)ncnc21
In short: as §1

[5] = compound: Cn1cc(-c2ccc3nnc(C(F)(F)c4ccc5ncccc5c4)n3n2)cn1
In short: as §1

tipifarnib = compound: Cn1cncc1[C@@](N)(c1ccc(Cl)cc1)c1ccc2c(c1)c(-c1cccc(Cl)c1)cc(=O)n2C [tipifarnib]
In short: as §1

mubritinib = compound: FC(F)(F)c1ccc(/C=C/c2nc(COc3ccc(CCCCn4ccnn4)cc3)co2)cc1 [mubritinib]
In short: as §1

[6] = compound: NC(=O)Nc1cc(-c2cccc(F)c2)sc1C(=O)N[C@H]1CCCNC1
In short: as §1

[7] = compound: NC(=O)c1cnc(N[C@@H]2CCCC[C@@H]2N)nc1Nc1cccc(-n2nccn2)c1
In short: as §1

[8] = compound: NC1(c2ccc(-c3nc4ccn5c(=O)[nH]nc5c4cc3-c3ccccc3)cc2)CCC1
In short: as §1

[9] = compound: NCC(=O)Nc1ccc(-n2nc(C(F)(F)F)cc2-c2ccc3c(ccc4ccccc43)c2)cc1
In short: as §1

entinostat = compound: Nc1ccccc1NC(=O)c1ccc(CNC(=O)OCc2cccnc2)cc1 [entinostat]
In short: as §1

vorinostat = compound: O=C(CCCCCCC(=O)Nc1ccccc1)NO [vorinostat]
In short: as §1

citarinostat = compound: O=C(CCCCCCNC(=O)c1cnc(N(c2ccccc2)c2ccccc2Cl)nc1)NO [citarinostat]
In short: as §1

silmitasertib = compound: O=C(O)c1ccc2c(c1)nc(Nc1cccc(Cl)c1)c1ccncc12 [silmitasertib]
In short: as §1

[10] = compound: O=C1NC(=O)C(c2cnc3ccccn23)=C1c1cn2c3c(cc(F)cc13)CN(C(=O)N1CCCCC1)CC2
In short: as §1

[11] = compound: c1cc(OCCN2CCCCC2)cc(-c2n[nH]c3ccc(-c4nnc[nH]4)cc23)c1
In short: as §1

Measured: log2 fold change

CBX3 (UniProt Q13185)
inactive: bafetinib -0.09 | [1] -0.082 | nilotinib 0.126 | [2] -0.128 | dasatinib 0.011 | [3] -0.048 | [4] 0.006 | [5] 0.029 | tipifarnib 0.035 | mubritinib 0.013 | [6] -0.059 | [7] -0.063 | [8] 0.046 | [9] -0.06 | entinostat 0.096 | vorinostat -0.047 | citarinostat -0.051 | silmitasertib -0.094 | [10] 0.042 | [11] 0.046

CCPG1 isoform 5 (UniProt Q9ULG6)
inactive: bafetinib 0.017 | [1] 0.068 | nilotinib -0.058 | [2] 0.041 | dasatinib 0.035 | [3] -0.065 | [4] -0.135 | [5] -0.025 | tipifarnib 0.126 | mubritinib -0.169 | [6] 0.017 | [7] -0.016 | [8] -0.055 | [9] 0.09 | entinostat 0.058 | vorinostat -0.021 | citarinostat 0.044 | silmitasertib 0.015 | [10] 0 | [11] -0.109

CCNB1 (UniProt P14635)
inactive: bafetinib -0.018 | [1] 0.009 | nilotinib 0.04 | [2] -0.156 | dasatinib 0.02 | [3] -0.025 | [4] 0.006 | [5] 0.003 | tipifarnib 0.02 | mubritinib 0.08 | [6] -0.031 | [7] -0.015 | [8] -0.03 | [9] 0.016 | entinostat -0.002 | vorinostat 0 | citarinostat 0.031 | silmitasertib -0.015 | [10] -0.076 | [11] -0.032

CCDC91 (UniProt Q7Z6B0)
inactive: bafetinib -0.025 | [1] -0.028 | nilotinib -0.008 | [2] -0.011 | dasatinib 0.005 | [3] -0.024 | [4] -0.058 | [5] 0.028 | tipifarnib -0.001 | mubritinib 0.047 | [6] -0.03 | [7] -0.019 | [8] -0.029 | [9] -0.052 | entinostat 0 | vorinostat 0.014 | citarinostat 0.003 | silmitasertib 0.009 | [10] -0.085 | [11] 0.008

CCDC58 (UniProt Q4VC31)
inactive: bafetinib -0.098 | [1] -0.021 | nilotinib -0.005 | [2] 0.031 | dasatinib 0.029 | [3] 0.01 | [4] 0.017 | [5] 0.047 | tipifarnib -0.002 | mubritinib -0.037 | [6] -0.006 | [7] 0.013 | [8] 0.004 | [9] 0.043 | entinostat -0.002 | vorinostat -0.007 | citarinostat 0.003 | silmitasertib -0.022 | [10] -0.005 | [11] 0.052

CDC23 (UniProt Q9UJX2)
inactive: bafetinib 0.008 | [1] -0.038 | nilotinib -0.013 | [2] -0.025 | dasatinib 0.005 | [3] -0.007 | [4] -0.052 | [5] -0.021 | tipifarnib 0.002 | mubritinib -0.007 | [6] -0.048 | [7] 0.015 | [8] -0.044 | [9] -0.02 | entinostat -0.025 | vorinostat 0.005 | citarinostat 0.032 | silmitasertib 0.035 | [10] 0.001 | [11] -0.059

CCS (UniProt O14618)
inactive: bafetinib -0.037 | [1] 0.01 | nilotinib -0.007 | [2] -0.058 | dasatinib -0.053 | [3] -0.038 | [4] 0.029 | [5] 0.066 | tipifarnib -0.035 | mubritinib 0.079 | [6] -0.018 | [7] 0.068 | [8] -0.046 | [9] -0.055 | entinostat -0.003 | vorinostat 0.02 | citarinostat 0.059 | silmitasertib 0.008 | [10] -0.018 | [11] 0.002

CCDC6 (UniProt Q16204)
inactive: bafetinib -0.035 | [1] 0.002 | nilotinib 0.002 | [2] 0.001 | dasatinib 0.028 | [3] -0.016 | [4] 0.054 | [5] -0.022 | tipifarnib 0.002 | mubritinib 0.019 | [6] -0.004 | [7] 0.007 | [8] 0.001 | [9] -0.001 | entinostat -0.008 | vorinostat -0.012 | citarinostat 0.02 | silmitasertib -0.03 | [10] -0.045 | [11] 0.009

CDC42 isoform 1 (UniProt P60953)
inactive: bafetinib 0.009 | [1] -0.075 | nilotinib 0.042 | [2] 0.002 | dasatinib 0.116 | [3] -0.01 | [4] -0.03 | [5] 0.091 | tipifarnib 0.022 | mubritinib 0.028 | [6] -0.031 | [7] -0.004 | [8] 0.059 | [9] -0.086 | entinostat -0.032 | vorinostat -0.065 | citarinostat 0.006 | silmitasertib 0.026 | [10] -0.032 | [11] -0.134

CDAN1 (UniProt Q8IWY9)
inactive: bafetinib -0.012 | [1] -0.014 | nilotinib 0.064 | [2] -0.195 | [3] -0.017 | [4] -0.023 | [5] 0.008 | tipifarnib 0.011 | mubritinib 0.056 | [6] -0.033 | [7] -0.042 | [8] -0.192 | [9] -0.091 | entinostat 0.051 | vorinostat 0.022 | citarinostat -0.011 | silmitasertib 0.095 | [10] 0.036 | [11] -0.018
active: dasatinib -0.582

CCNA2 (UniProt P20248)
inactive: bafetinib 0.005 | [1] 0.014 | nilotinib 0.042 | [2] -0.107 | dasatinib -0.042 | [3] 0.009 | [4] 0.016 | [5] -0.02 | tipifarnib 0.009 | mubritinib 0.025 | [6] -0.069 | [7] -0.001 | [8] 0.011 | [9] 0.057 | entinostat 0.052 | vorinostat 0.031 | citarinostat 0.053 | silmitasertib -0.037 | [10] 0.015 | [11] -0.073

2 records picked at random from those above, as already listed:
CDAN1 (UniProt Q8IWY9)
inactive: bafetinib -0.012 | [1] -0.014 | nilotinib 0.064 | [2] -0.195 | [3] -0.017 | [4] -0.023 | [5] 0.008 | tipifarnib 0.011 | mubritinib 0.056 | [6] -0.033 | [7] -0.042 | [8] -0.192 | [9] -0.091 | entinostat 0.051 | vorinostat 0.022 | citarinostat -0.011 | silmitasertib 0.095 | [10] 0.036 | [11] -0.018
active: dasatinib -0.582

CCDC6 (UniProt Q16204)
inactive: bafetinib -0.035 | [1] 0.002 | nilotinib 0.002 | [2] 0.001 | dasatinib 0.028 | [3] -0.016 | [4] 0.054 | [5] -0.022 | tipifarnib 0.002 | mubritinib 0.019 | [6] -0.004 | [7] 0.007 | [8] 0.001 | [9] -0.001 | entinostat -0.008 | vorinostat -0.012 | citarinostat 0.02 | silmitasertib -0.03 | [10] -0.045 | [11] 0.009

The results go on.

CASP3 (UniProt P42574)
inactive: bafetinib -0.031 | [1] -0.042 | nilotinib 0.013 | [2] -0.012 | dasatinib 0.002 | [3] -0.007 | [4] 0.008 | [5] -0.022 | tipifarnib -0.055 | mubritinib 0.007 | [6] 0.051 | [7] 0.053 | [8] 0.075 | [9] 0.043 | entinostat -0.029 | vorinostat 0 | citarinostat -0.043 | silmitasertib -0.057 | [10] 0.018 | [11] -0.051

CCNK isoform 4 (UniProt O75909)
inactive: bafetinib 0.106 | [1] -0.021 | nilotinib 0.045 | [2] 0.046 | dasatinib -0.013 | [3] -0.025 | [4] -0.118 | [5] -0.069 | tipifarnib 0.096 | mubritinib 0.006 | [6] -0.053 | [7] -0.104 | [8] 0.044 | [9] -0.091 | entinostat -0.044 | vorinostat -0.021 | citarinostat -0.007 | silmitasertib -0.046 | [10] 0.006
active: [11] -0.305

CCT4 (UniProt P50991)
inactive: bafetinib 0.016 | [1] 0.057 | nilotinib -0.053 | [2] 0.017 | dasatinib -0.005 | [3] -0.005 | [4] -0.003 | [5] 0.003 | tipifarnib -0.042 | mubritinib 0.016 | [6] 0.035 | [7] 0.015 | [8] 0.011 | [9] 0.039 | entinostat 0.016 | vorinostat 0.033 | citarinostat 0.013 | silmitasertib -0.031 | [10] 0.002 | [11] 0.003

CBFB isoform 2 (UniProt Q13951)
inactive: bafetinib -0.089 | [1] 0.094 | nilotinib -0.021 | [2] -0.039 | dasatinib -0.044 | [3] 0.021 | [4] 0.067 | [5] 0.072 | tipifarnib -0.046 | mubritinib 0.029 | [6] 0.238 | [7] -0.055 | [8] -0.119 | [9] 0.016 | entinostat 0.098 | vorinostat 0.011 | citarinostat -0.028 | silmitasertib 0.047 | [10] -0.057 | [11] 0.007

CD2AP (UniProt Q9Y5K6)
inactive: bafetinib -0.072 | [1] -0.028 | nilotinib 0.01 | [2] -0.038 | dasatinib -0.021 | [3] 0.004 | [4] -0.01 | [5] 0.011 | tipifarnib -0.002 | mubritinib 0.039 | [6] -0.008 | [7] -0.012 | [8] -0.071 | [9] -0.06 | entinostat 0.01 | vorinostat -0.002 | citarinostat 0.033 | silmitasertib -0.015 | [10] -0.032 | [11] -0.025
